In PubChem BioAssay AID266 (DTP/NCI, 2004):
The list shows only some results of the screen, not a fair sample: it is rich in T/C values a quarter to a half above the control, in often repeated tests (any T/C) and in doses without a T/C. Further doses and runs are listed elsewhere. T/C gives the treated animals as a percentage of the vehicle group. Schedule codes are those of the source, read here as Q, the interval in days (D) or hours (H), X, the number of doses. Some T/C values carry the count of animals alive at the toxicity check (mostly the fifth day); without a count, all were alive then. Some doses have a count of surviving animals in place of a T/C: the source holds a T/C of zero for them, seemingly a mark for toxic or unscored doses. Survivors were counted at the toxicity check, usually on the fifth day, unless a day is given; later deaths do not show.

Tested on: Nude mice, LX-1 lung xenograft intrarenal, tumor weight T/C
Experiment: NCI In Vivo Anticancer Drug Screen. Data for tumor model Human Lung LX-1 Xenograft (intrarenal inoculation) in NU/NU BALB/C (nude) mice
Conditions: T/C endpoint: mean tumor weight change, higher T/C = larger tumour; for T/C: evaluated on day 11
Method: The antitumor activity of compounds was measured in mice bearing transplantable tumors. Survival or tumor size were measured and the results are expressed as the measurement made in the treated group (T) divided by the measurement made in the vehicle treated control group (C). The tumor model used in this assay is Human Lung LX-1 Xenograft (intrarenal inoculation) in NU/NU BALB/C (nude) mice

[1] = dose: 100.0 mg/kg/injection, schedule: Q01DX010 (sc), vehicle: saline

For `CC[C@@]1(O)C[C@H](OC2CC(N(C)C)C(OC3CC(O)C(OC4CCC(=O)C(C)O4)C(C)O3)C(C)O2)c2c(cc3c(c2O)C(=O)c2c(O)cccc2C3=O)[C@H]1C(=O)OC` (stereo partly drawn), the T/C (dose: 0.5 mg/kg/injection, schedule: Q01DX010 (sc), vehicle: water) was 147 % of control, the survivor count (dose: 4.0 mg/kg/injection, schedule: Q01DX010 (sc), vehicle: water) was 0 of 3 on day 11 and the survivor count (dose: 13.3 mg/kg/injection, schedule: Q04DX003 (sc), vehicle: water) was 0 of 3 on day 11.

In the case of `C/C(=C\c1ccccc1)[N+](=O)[O-]`, the T/C (dose: 25.0 mg/kg/injection, schedule: Q01DX010 (sc), vehicle: Klucel (hydroxypropylcellulose) (HPC)) is reported as 131 % of control.

In the case of `COc1ccc2c(ccc3oc([N+](=O)[O-])cc32)c1`, the T/C (dose: 1200.0 mg/kg/injection, schedule: Q04DX003 (sc), vehicle: Klucel (hydroxypropylcellulose) (HPC)) is reported as 127 % of control.

`O=C(CCCN1CCC(C(O)c2ccc(F)cc2)CC1)c1ccc(F)cc1` (stereo not drawn) was tested, and the survivor count (dose: 100.0 mg/kg/injection, schedule: Q04DX003 (ip), vehicle: saline with Tween-80) was 3 of 6 on day 11.

With `Nc1ccc(Cn2ccc3c4c(N)nc(N)nc4ccc32)cc1` the survivor count (dose: 75.0 mg/kg/injection, schedule: Q04DX003 (sc), vehicle: saline with Tween-80) was 3 of 5 on day 11.

For `Nc1ccc(S(=O)(=O)Nc2cnc3c(Cl)cccc3n2)cc1`, the survivor count (dose: 1200.0 mg/kg/injection, schedule: Q04DX003 (ip), vehicle: DMSO) was 0 of 6 on day 11.

In the case of `CN(C)N=Nc1cccc(C(N)=O)c1`, the survivor count (dose: 200.0 mg/kg/injection, schedule: Q04DX003 (sc), vehicle: Klucel (hydroxypropylcellulose) (HPC)) is reported as 0 of 6 on day 11 and the survivor count (dose: 400.0 mg/kg/injection, schedule: Q04DX003 (sc), vehicle: Klucel (hydroxypropylcellulose) (HPC)) is reported as 0 of 3 on day 11.

For `CCOC(=O)c1c[nH]c2oc(/C=N/N3CC(CN4CCOCC4)OC3=O)cc2c1=O` (stereo not drawn), the T/C [1] was 132 % of control and the survivor count (dose: 400.0 mg/kg/injection, schedule: Q01DX010 (sc), vehicle: saline) was 0 of 3 on day 11.

`Nc1cc2[nH]cnc2c(=O)[nH]1` was tested, and the survivor count [1] was 1 of 3 on day 11 and the survivor count (dose: 200.0 mg/kg/injection, schedule: Q01DX010 (sc), vehicle: saline) was 0 of 3 on day 11.

In the case of `CN(C)c1nc(N(C)C)nc(N(C)C)n1`, the T/C (dose: 50.0 mg/kg/injection, schedule: Q01DX010 (sc), vehicle: saline with Tween-80) is reported as 146 % of control [2 of 2 alive on day 11], the survivor count (dose: 240.0 mg/kg/injection, schedule: Q01DX010 (sc), vehicle: saline with Tween-80) is reported as 1 of 3 on day 11 and the survivor count (dose: 400.0 mg/kg/injection, schedule: Q01DX010 (sc), vehicle: saline with Tween-80) is reported as 0 of 2 on day 11.

In the case of `CN(C)N=Nc1ccc(C(=O)O)cc1`, the survivor count (dose: 800.0 mg/kg/injection, schedule: Q04DX003 (ip), vehicle: saline) is reported as 0 of 6 on day 11.

With `NNC(=S)N/N=C/c1ccccn1` the survivor count (dose: 120.0 mg/kg/injection, schedule: Q04DX003 (sc), vehicle: saline with Tween-80) was 0 of 6 on day 11.

In the case of `NC(CCl)=NCC12CC3CC(CC(C3)C1)C2`, the T/C (dose: 37.5 mg/kg/injection, schedule: Q04DX003 (sc), vehicle: Klucel (hydroxypropylcellulose) (HPC)) is reported as 135 % of control and the survivor count (dose: 150.0 mg/kg/injection, schedule: Q04DX003 (sc), vehicle: Klucel (hydroxypropylcellulose) (HPC)) is reported as 3 of 6 on day 11.

In the case of `CC[C@H]1CN2CCc3cc(OC)c(OC)cc3[C@@H]2C[C@@H]1C[C@H]1NCCc2cc(OC)c(OC)cc21`, the survivor count (dose: 8.0 mg/kg/injection, schedule: Q01DX010 (sc), vehicle: saline) is reported as 0 of 3 on day 11, the survivor count (dose: 16.0 mg/kg/injection, schedule: Q01DX010 (sc), vehicle: saline) is reported as 0 of 3 on day 11 and the survivor count (dose: 32.0 mg/kg/injection, schedule: Q01DX010 (sc), vehicle: saline) is reported as 0 of 3 on day 11.

With `O=C(CCBr)N1CCN(C(=O)CCBr)CC1` the survivor count (dose: 100.0 mg/kg/injection, schedule: Q01DX010 (sc), vehicle: Klucel (hydroxypropylcellulose) (HPC)) was 0 of 3 on day 11, the survivor count (dose: 200.0 mg/kg/injection, schedule: Q01DX010 (sc), vehicle: Klucel (hydroxypropylcellulose) (HPC)) was 0 of 3 on day 11 and the survivor count (dose: 400.0 mg/kg/injection, schedule: Q01DX010 (sc), vehicle: Klucel (hydroxypropylcellulose) (HPC)) was 0 of 3 on day 11.

`CN(Cc1cnc2nc(N)nc(N)c2n1)c1ccc(C(=O)N[C@@H](CCC(=O)O)C(=O)O)cc1` was tested, and the survivor count (dose: 4.0 mg/kg/injection, schedule: Q01DX010 (sc), vehicle: sodium bicarbonate) was 1 of 6 on day 11.
